Some results were stated once for a whole list of compounds, not compound by compound.
System: tobacco mosaic virus (TMV)
Test: Anti-TMV activity, overall statements on Table 1
Format: in vivo, tobacco mosaic virus (host Nicotiana tabacum L.cv.Xanthi NN)
Details: 100 μg/mL versus ningnanmycin at 100 μg/mL

## C[C@@H]1N[C@H](C(=O)N/N=C/c2ccccc2)Cc2c1[nH]c1ccccc21 [Ic-1, (1S, 3S)—N′-benzylidene-1-methyl-2,3,4,9-tetrahydropyridino [3,4-b] indol-3-formylhydrazine]
  anti-TMV activity compared with ningnanmycin: equivalent to the activity of commercial variety ningnanmycin

Source: patent US10208033B2, “β-carboline, dihydro-β-carboline and tetrahydro-β-carboline alkaloid derivatives and preparation methods same and use in aspects of preventing and treating plant viruses, fungicides and insecticides” (NANKAI UNIVERSITY, priority 2013, dated 2019)
